# Reference: PubChem BioAssay AID192 (DTP/NCI, 2004)
# The list shows only some results of the screen, not a fair sample: it gathers tests that were run many times, whatever their T/C, doses with no T/C, and many T/C values between a quarter and a half above the control. Further doses and runs are listed elsewhere. T/C gives the treated animals as a percentage of the vehicle group. Some doses have a count of surviving animals in place of a T/C: the source files T/C as zero there, which appears to mark a toxic dose or a test without result, not a measured value. Some doses without a T/C left all or most animals alive at the check, yet need not have been tolerated: the source hardly ever lists a survival T/C far under the control, and the zero likely stands for such cases as well. Counts of survivors are from the toxicity check (mostly the fifth day) where no day follows; animals may have died later. Schedule codes are those of the source, taken here to give the interval after Q, in days (D) or hours (H), and the number of doses after X. Some doses were run more than once; the results are listed from low to high. For survival time, the PubChem record calls one and a half times the control and up active, and a quarter to a half above the control has no call in these data; cut-offs in other NCI protocols can differ.
# Test system: BDF1 mice, B16 melanoma ip, median survival T/C
# Assay: NCI In Vivo Anticancer Drug Screen. Data for tumor model B16 Melanoma (intraperitoneal) in B6D2F1 (BDF1) mice
# Conditions: T/C endpoint: median survival time, higher T/C = longer survival
# Method in brief: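 Read-out: survival or tumor size, given as treated/control ratio. Controls received vehicle only; animals bore transplantable tumors.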
# [1] = dose: 200.0 mg/kg/injection, schedule: Q01DX009 (ip), vehicle: saline with Tween-80
# [2] = dose: 1.56 mg/kg/injection, schedule: Q01DX009 (ip), vehicle: saline
# [3] = dose: 100.0 mg/kg/injection, schedule: Q04DX003 (ip), vehicle: saline with Tween-80
# [4] = dose: 400.0 mg/kg/injection, schedule: Q04DX003 (ip), vehicle: saline with Tween-80
# [5] = dose: 400.0 mg/kg/injection, schedule: Q01DX009 (ip), vehicle: saline with Tween-80
# [6] = dose: 400.0 mg/kg/injection, schedule: Q01DX009 (ip), vehicle: Klucel (hydroxypropylcellulose) (HPC)
# [7] = dose: 12.5 mg/kg/injection, schedule: Q01DX009 (ip), vehicle: Klucel (hydroxypropylcellulose) (HPC)
# [8] = dose: 100.0 mg/kg/injection, schedule: Q01DX009 (ip), vehicle: saline with Tween-80
# [9] = dose: 100.0 mg/kg/injection, schedule: Q01DX009 (ip), vehicle: Klucel (hydroxypropylcellulose) (HPC)
structure (smiles),measurement,setting,value
NC(=O)c1cc([N+](=O)[O-])c(Cl)c([N+](=O)[O-])c1Cl,survivor count,"dose: 16.0 mg/kg/injection, schedule: Q01DX009 (ip), vehicle: Klucel (hydroxypropylcellulose) (HPC)",8 of 10
O=[N+]([O-])c1cc([N+](=O)[O-])c(Br)cc1Cl,survivor count,"dose: 10.0 mg/kg/injection, schedule: Q01DX009 (ip), vehicle: Klucel (hydroxypropylcellulose) (HPC)",10 of 10
same,survivor count,"dose: 20.0 mg/kg/injection, schedule: Q01DX009 (ip), vehicle: saline with Tween-80",9 of 10
same,survivor count,"dose: 40.0 mg/kg/injection, schedule: Q01DX009 (ip), vehicle: Klucel (hydroxypropylcellulose) (HPC)",10 of 10
CCCCCCCCCCCCCCCC(=O)N(CCCN(C)C)CCCN(CCCN(C)C)C(=O)CCCCCCCCCCCCCCC,survivor count,"dose: 25.0 mg/kg/injection, schedule: Q01DX009 (ip), vehicle: water",10 of 10
CC(C)(C)OC(=O)NC(Cc1ccc(OCc2c(Cl)cccc2Cl)cc1)C(=O)O (stereo not drawn),survivor count,[1],9 of 10
C[NH-].C[NH-].[Cl][Pt+2][Cl],T/C,"dose: 0.78 mg/kg/injection, schedule: Q01DX009 (ip), vehicle: saline",136 % of control
same,T/C,[2],136 % of control
same,survivor count,"dose: 3.12 mg/kg/injection, schedule: Q01DX009 (ip), vehicle: saline",10 of 10
same,T/C,"dose: 3.13 mg/kg/injection, schedule: Q01DX009 (ip), vehicle: saline with Tween-80",144 % of control
same,T/C,"dose: 5.0 mg/kg/injection, schedule: Q01DX009 (ip), vehicle: saline with Tween-80",136 % of control
same,survivor count,"dose: 6.25 mg/kg/injection, schedule: Q01DX009 (ip), vehicle: saline with Tween-80",10 of 10
same,survivor count,"dose: 6.25 mg/kg/injection, schedule: Q01DX009 (ip), vehicle: saline",10 of 10
same,survivor count,"dose: 12.0 mg/kg/injection, schedule: Q01DX009 (ip), vehicle: saline with Tween-80",9 of 10
same,survivor count,"dose: 12.5 mg/kg/injection, schedule: Q01DX009 (ip), vehicle: saline with Tween-80",10 of 10
same,T/C,"dose: 12.5 mg/kg/injection, schedule: Q04DX003 (ip), vehicle: saline with Tween-80",145 % of control
same,survivor count,"dose: 18.0 mg/kg/injection, schedule: Q01DX009 (ip), vehicle: saline with Tween-80",7 of 10
same,survivor count,"dose: 25.0 mg/kg/injection, schedule: Q01DX009 (ip), vehicle: saline with Tween-80",5 of 10
same,survivor count,"dose: 25.0 mg/kg/injection, schedule: Q04DX003 (ip), vehicle: saline with Tween-80",8 of 10
same,survivor count,"dose: 50.0 mg/kg/injection, schedule: Q04DX003 (ip), vehicle: saline with Tween-80",0 of 10
same,survivor count,[3],0 of 10
same,survivor count,"dose: 200.0 mg/kg/injection, schedule: Q04DX003 (ip), vehicle: saline with Tween-80",0 of 10
same,survivor count,[4],0 of 10
CCCCCC(=O)c1ccc(OCCCN2CCN(C(=O)OCC)CC2)cc1,survivor count,[5],8 of 10
CC(C)C(NC(=O)c1ccccc1)C(=O)O (stereo not drawn),survivor count,"dose: 100.0 mg/kg/injection, schedule: Q04DX003 (ip), vehicle: Klucel (hydroxypropylcellulose) (HPC)",9 of 10
same,survivor count,[1],10 of 10
same,survivor count,"dose: 200.0 mg/kg/injection, schedule: Q04DX003 (ip), vehicle: Klucel (hydroxypropylcellulose) (HPC)",9 of 10
same,survivor count,[6],10 of 10
same,survivor count,[5],9 of 10
same,survivor count,"dose: 400.0 mg/kg/injection, schedule: Q04DX003 (ip), vehicle: Klucel (hydroxypropylcellulose) (HPC)",10 of 10
Cc1ccc2c(ccc(/C=C/c3ccc(O)c4ncccc34)[n+]2C)c1,survivor count,"dose: 50.0 mg/kg/injection, schedule: Q01DX009 (ip), vehicle: saline with Tween-80",10 of 10
same,T/C,"dose: 75.0 mg/kg/injection, schedule: Q01DX009 (ip), vehicle: saline sonified",131 % of control
same,survivor count,"dose: 150.0 mg/kg/injection, schedule: Q01DX009 (ip), vehicle: saline sonified",6 of 6
same,survivor count,"dose: 300.0 mg/kg/injection, schedule: Q01DX009 (ip), vehicle: saline sonified",6 of 6
O=C(O)O.O=C(O)O.O=C(O)O.[Co],survivor count,[3],7 of 10
CCCCCC(C)(O)CCCCC,survivor count,"dose: 400.0 mg/kg/injection, schedule: Q01DX009 (ip), vehicle: saline",8 of 10
CCCCC(CC)C(O)C(C)C(C)O (stereo not drawn),survivor count,[6],5 of 6
COc1ccc2c(ccc[n+]2C)c1,survivor count,"dose: 50.0 mg/kg/injection, schedule: Q01DX009 (ip), vehicle: saline",8 of 10
same,survivor count,"dose: 100.0 mg/kg/injection, schedule: Q04DX003 (ip), vehicle: saline",0 of 10
O=[N+]([O-])c1ccc2nc3c(nc2c1)-c1cccc2cccc-3c12,survivor count,[5],8 of 10
CCCCC(CC)COP(OCC(CC)CCCC)OCC(CC)CCCC (stereo not drawn),survivor count,[4],10 of 10
C/C=C\C#N,survivor count,"dose: 200.0 mg/kg/injection, schedule: Q01DX009 (ip), vehicle: saline",4 of 10
C[C@]12CCC(=O)C=C1CC[C@@H]1[C@@H]2C(=O)C[C@@]2(C)[C@H]1CC[C@]2(O)C(=O)CO,survivor count,"dose: 320.0 mg/kg/injection, schedule: Q02DX009 (ip), vehicle: Klucel (hydroxypropylcellulose) (HPC)",10 of 10
CCCCc1ccc(-n2c(C)c(COC(=O)NC)c(COC(=O)NC)c2C)cc1,T/C,"dose: 1.56 mg/kg/injection, schedule: Q01DX009 (ip), vehicle: Klucel (hydroxypropylcellulose) (HPC)",125 and 131 % of control
same,T/C,"dose: 3.12 mg/kg/injection, schedule: Q01DX009 (ip), vehicle: Klucel (hydroxypropylcellulose) (HPC)",129 and 139 % of control
same,T/C,"dose: 6.25 mg/kg/injection, schedule: Q01DX009 (ip), vehicle: Klucel (hydroxypropylcellulose) (HPC)",146 and 149 % of control
same,T/C,[7],139 and 141 % of control
same,T/C,"dose: 25.0 mg/kg/injection, schedule: Q01DX009 (ip), vehicle: Klucel (hydroxypropylcellulose) (HPC)",145 % of control
same,survivor count,"dose: 50.0 mg/kg/injection, schedule: Q01DX009 (ip), vehicle: Klucel (hydroxypropylcellulose) (HPC)",9 of 10 and 10 of 10
COC(=O)C(F)C(Br)C(=O)OC (stereo not drawn),survivor count,[8],6 of 10
O=C(Nc1ccccc1C(F)(F)F)Nc1cccc2ccccc12,survivor count,[6],6 of 6
CN1CCN(c2ccc(Cl)cc2)CC1,survivor count,[9],9 of 10
CCCCCCCCCCCCCCCCCCNC(=O)Nc1cccc(C)c1C,survivor count,[9],10 of 10
same,survivor count,"dose: 200.0 mg/kg/injection, schedule: Q01DX009 (ip), vehicle: Klucel (hydroxypropylcellulose) (HPC)",10 of 10
same,survivor count,[6],9 of 9
CCn1cnc2c(=S)nc[nH]c21,survivor count,[8],5 of 6
same,survivor count,[1],6 of 6
CC(C)NCC(O)COc1cccc2ccccc12 (stereo not drawn),survivor count,"dose: 128.0 mg/kg/injection, schedule: Q01DX009 (ip), vehicle: Klucel (hydroxypropylcellulose) (HPC)",0 of 10
CN1CCCCC1CCN1c2ccccc2Sc2ccc(Br)cc21 (stereo not drawn),survivor count,[2],10 of 10
COc1cccc2c1C(=O)c1c(O)c3c(c(O)c1C2=O)C[C@@](O)(/C(C)=N/NC(=O)c1cccc([N+](=O)[O-])c1)C[C@@H]3OC1CC(N)C(O)C(C)O1 (stereo partly drawn),T/C,"dose: 1.0 mg/kg/injection, schedule: Q01DX001 (ip), vehicle: water",131 % of control
same,T/C,"dose: 2.0 mg/kg/injection, schedule: Q01DX001 (ip), vehicle: water",147 % of control
same,T/C,"dose: 4.0 mg/kg/injection, schedule: Q01DX001 (ip), vehicle: water",139 % of control
same,T/C,"dose: 8.0 mg/kg/injection, schedule: Q01DX001 (ip), vehicle: water",146 % of control
same,T/C,"dose: 16.0 mg/kg/injection, schedule: Q01DX001 (ip), vehicle: water",146 % of control
same,survivor count,"dose: 32.0 mg/kg/injection, schedule: Q01DX001 (ip), vehicle: water",7 of 10 and 9 of 10
same,survivor count,"dose: 64.0 mg/kg/injection, schedule: Q01DX001 (ip), vehicle: water",2 of 10
CCCCOCN(COCCCC)C(C)Cc1ccccc1 (stereo not drawn),survivor count,[5],0 of 10 and 4 of 10
CC[C@@H](C(=O)[C@@H](C)[C@@H](O)[C@H](C)CCc1ccc(C)c(O)c1C(=O)O)[C@H]1O[C@](CC)([C@H]2CC[C@](O)(CC)[C@H](C)O2)C[C@@H]1C,survivor count,[7],6 of 10
